{"source": "PubChem BioAssay AID1259254, NCATS – 2017", "purpose": "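Finding genes that stop cells copying their DNA twice in one cycle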 (primary screen)", "system": "human HCT116 colorectal cancer cells", "knock-down reagent": "single siRNA against human genes", "timing": "3 days", "measured": "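Nuclei stained with Hoechst and imaged; cell-cycle phase assigned by DNA content; G2 share scaled per plate, non-targeting siRNA 0%, GMNN siRNA 100%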", "scale": "G2 robust z-score: higher = more G2 cells, more excess DNA replication", "rule for the call": "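An siRNA counts as active if its G2 robust z-score lies at least 5 MADs above the screen median; here such calls match roughly 38% of GMNN control or more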", "note": "The whole screen tested about 59,000 reagents; shown is an unselected part. Of all reagents, about 1,550 (2.6%) got an active call. 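G2 share is only a proxy for re-replication; each gene was hit by three separate siRNAs, and active genes were retested.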 The numbers tell different reagents against one gene apart. Further read-outs or replicates are left out here. No sequences are given here. Not stated in the record: the amount of reagent."}
{"target":"GRIA3 (GeneID 2892)","siRNA no.":1,"G2 robust z-score":-1.31,"Outcome":"inactive"}
{"target":"GRIA3 (GeneID 2892)","siRNA no.":2,"G2 robust z-score":2.31,"Outcome":"inactive"}
{"target":"GRIA3 (GeneID 2892)","siRNA no.":3,"G2 robust z-score":0.011,"Outcome":"inactive"}
{"target":"DDX52 (GeneID 11056)","siRNA no.":1,"G2 robust z-score":0.703,"Outcome":"inactive"}
{"target":"DDX52 (GeneID 11056)","siRNA no.":2,"G2 robust z-score":0.0753,"Outcome":"inactive"}
{"target":"DDX52 (GeneID 11056)","siRNA no.":3,"G2 robust z-score":1.36,"Outcome":"inactive"}
{"target":"STMN2 (GeneID 11075)","siRNA no.":1,"G2 robust z-score":-0.456,"Outcome":"inactive"}
{"target":"STMN2 (GeneID 11075)","siRNA no.":2,"G2 robust z-score":-0.369,"Outcome":"inactive"}
{"target":"STMN2 (GeneID 11075)","siRNA no.":3,"G2 robust z-score":0.947,"Outcome":"inactive"}
{"target":"CETN3 (GeneID 1070)","siRNA no.":1,"G2 robust z-score":0.0887,"Outcome":"inactive"}
{"target":"CETN3 (GeneID 1070)","siRNA no.":2,"G2 robust z-score":-0.583,"Outcome":"inactive"}
{"target":"CETN3 (GeneID 1070)","siRNA no.":3,"G2 robust z-score":0.226,"Outcome":"inactive"}

A portion taken from the entries so far, for reference:
{"target":"CETN3 (GeneID 1070)","siRNA no.":1,"G2 robust z-score":0.0887,"Outcome":"inactive"}
{"target":"CETN3 (GeneID 1070)","siRNA no.":2,"G2 robust z-score":-0.583,"Outcome":"inactive"}

Continued:
{"target":"FXYD4 (GeneID 53828)","siRNA no.":1,"G2 robust z-score":-0.143,"Outcome":"inactive"}
{"target":"FXYD4 (GeneID 53828)","siRNA no.":2,"G2 robust z-score":1.39,"Outcome":"inactive"}
{"target":"FXYD4 (GeneID 53828)","siRNA no.":3,"G2 robust z-score":1.41,"Outcome":"inactive"}
{"target":"ZNF48 (GeneID 197407)","siRNA no.":1,"G2 robust z-score":1.1,"Outcome":"inactive"}
{"target":"ZNF48 (GeneID 197407)","siRNA no.":2,"G2 robust z-score":-0.589,"Outcome":"inactive"}
{"target":"ZNF48 (GeneID 197407)","siRNA no.":3,"G2 robust z-score":-1.2,"Outcome":"inactive"}
